Earlier results in paper PMC8037910, “Effect of Chronic Administration of 5-(3-chlorophenyl)-4-Hexyl-2,4 -Dihydro-3H-1,2,4-Triazole-3-Thione (TP-315)—A New Anticonvulsant Drug Candidate—On Living Organisms” (International Journal of Molecular Sciences, 2021).
Read-outs that look alike come from different tables or passages of the source.

How the values were obtained:
[1] = tested on: maximal electroshock-induced seizure (MES); parameters: method as in PMID 23291122, PMID 25226229, PMID 25090118; conditions: mice, cited from earlier work
[2] = tested on: 6 Hz psychomotor seizure model; parameters: method as in PMID 32253957; conditions: mice, cited from earlier work

## CCCCCCn1c(Cc2cccc(Cl)c2)n[nH]c1=S [TP-427, 5-(3-Chlorobenzyl)-4-hexyl-2,4-dihydro-3H-1,2,4-triazole-3-thione]
[1]; pretreatment time 15 min
  MES Test PI (TD50/ED50): >13
[1]; pretreatment time 30 min
  MES Test PI (TD50/ED50): >13
[1]; pretreatment time 60 min
  MES Test PI (TD50/ED50): 6.5
[1]; pretreatment time 120 min
  MES Test PI (TD50/ED50): 5.6
[2]; pretreatment time 15 min
  6 Hz Test PI (TD50/ED50): >24.4
[2]; pretreatment time 30 min
  6 Hz Test PI (TD50/ED50): >21.5
[2]; pretreatment time 60 min
  6 Hz Test PI (TD50/ED50): 10.5
[2]; pretreatment time 120 min
  6 Hz Test PI (TD50/ED50): 8.5

## CCCCCCn1c(-c2cccc(Cl)c2)n[nH]c1=S [TP-315, 5-(3-Chlorophenyl)-4-hexyl-2,4-dihydro-3H-1,2,4-triazole-3-thione]
[1]; pretreatment time 15 min
  MES Test PI (TD50/ED50): 9.7
[1]; pretreatment time 30 min
  MES Test PI (TD50/ED50): 6.8
[1]; pretreatment time 60 min
  MES Test PI (TD50/ED50): 4.7
[1]; pretreatment time 120 min
  MES Test PI (TD50/ED50): 2.8
[2]; pretreatment time 15 min
  6 Hz Test PI (TD50/ED50): 7.6
[2]; pretreatment time 30 min
  6 Hz Test PI (TD50/ED50): 7.8
[2]; pretreatment time 60 min
  6 Hz Test PI (TD50/ED50): 6.7
[2]; pretreatment time 120 min
  6 Hz Test PI (TD50/ED50): 3.3

## Cc1ccc(-n2c(-c3cccc(Cl)c3)n[nH]c2=S)cc1 [TP-10, 5-(3-Chlorophenyl)-4-(4-methylphenyl)-2,4-dihydro-3H-1,2,4-triazole-3-thione]
[1]; pretreatment time 15 min
  MES Test PI (TD50/ED50): 5.9
[1]; pretreatment time 30 min
  MES Test PI (TD50/ED50): 4.5
[1]; pretreatment time 60 min
  MES Test PI (TD50/ED50): 1.8
[1]; pretreatment time 120 min
  MES Test PI (TD50/ED50): 1.4
[2]; pretreatment time 15 min
  6 Hz Test PI (TD50/ED50): 5.4
[2]; pretreatment time 30 min
  6 Hz Test PI (TD50/ED50): 5.5
[2]; pretreatment time 60 min
  6 Hz Test PI (TD50/ED50): 2.0
[2]; pretreatment time 120 min
  6 Hz Test PI (TD50/ED50): 2.4

## CC(C)Cn1c(Cc2cccc(Cl)c2)n[nH]c1=S [TPR-22, 5-(3-Chlorobenzyl)-4-isobutyl-2,4-dihydro-3H-1,2,4-triazole-3-thione]
[1]; pretreatment time 15 min
  MES Test PI (TD50/ED50): 2.3
[1]; pretreatment time 30 min
  MES Test PI (TD50/ED50): 2.4
[1]; pretreatment time 60 min
  MES Test PI (TD50/ED50): 2.0
[1]; pretreatment time 120 min
  MES Test PI (TD50/ED50): 1.7
